Measurements reported in publication PMC5608968.
Results are given in words; binding and its absence hold for the method and conditions named. Binding can be weak; no strength is given.

The chains behind the UniProt entries cited, without tags or fusion partners. Where a name states a change or a piece, a line headed by the entry shows the natural chain unless it says otherwise. A line that says so, or that is headed by a name, gives the form on record, which may keep a tag or linker.
FLAG-hPIASxα (O75928, form named): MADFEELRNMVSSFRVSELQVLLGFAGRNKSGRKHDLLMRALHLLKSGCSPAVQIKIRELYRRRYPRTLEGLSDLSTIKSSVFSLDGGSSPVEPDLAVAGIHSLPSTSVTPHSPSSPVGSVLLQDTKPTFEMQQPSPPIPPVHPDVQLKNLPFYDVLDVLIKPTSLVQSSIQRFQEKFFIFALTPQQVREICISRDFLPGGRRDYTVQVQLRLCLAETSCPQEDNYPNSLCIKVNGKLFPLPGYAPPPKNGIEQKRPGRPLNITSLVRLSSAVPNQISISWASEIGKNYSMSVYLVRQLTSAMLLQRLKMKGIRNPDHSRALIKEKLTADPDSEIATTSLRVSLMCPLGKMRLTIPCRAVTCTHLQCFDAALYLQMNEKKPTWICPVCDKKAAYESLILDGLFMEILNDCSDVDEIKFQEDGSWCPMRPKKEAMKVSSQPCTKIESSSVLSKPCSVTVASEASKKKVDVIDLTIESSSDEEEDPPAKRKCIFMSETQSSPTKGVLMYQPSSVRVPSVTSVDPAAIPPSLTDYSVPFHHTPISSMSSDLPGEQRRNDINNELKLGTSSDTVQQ
UniProt P61956: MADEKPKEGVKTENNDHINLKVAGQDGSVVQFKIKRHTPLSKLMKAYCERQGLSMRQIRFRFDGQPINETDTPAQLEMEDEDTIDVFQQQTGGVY

Target: FLAG-hPIASxα (human) (UniProt O75928)
Assay: pull-down; both purified

In the case of “Recombinant human His-SUMO2 (from UniProt P61956)”, the binding is reported as “binds”.
